Data published in paper PMC5811534, “Neuropathic MORC2 mutations perturb GHKL ATPase dimerization dynamics and epigenetic silencing by multiple structural mechanisms” (Nature Communications, 2018).
Where a chain is given by its changes, count along the chain named. Numbers in names are those of the source. These are yes or no findings as the source states them, for the method shown.

Experiments:
[1] = target: wild-type human MORC2(1–603) (human) (UniProt Q9Y6X9); test: SEC-MALS; SEC-MALS with QELS, Superdex 200 (10/300), 293 K, gel filtration buffer (50 mM HEPES pH 7.5, 150 mM NaCl, 2 mM MgCl2, 0.25 mM TCEP); no nucleotide added; WT at 40 µM, S87L at 7.5 µM; monomer to dimer; both purified
[2] = target: MORC2(1–603) Y18A (human) (UniProt Q9Y6X9); test: SEC-MALS; SEC-MALS with QELS, Superdex 200 (10/300), 293 K, gel filtration buffer; 2 mM Mg-AMPPNP added to the sample, 30 min on ice before injection; WT at 40 µM, T424R at 7.5 µM; monomer to dimer; both purified
[3] = target: MORC2(1–603) N39A (human) (UniProt Q9Y6X9); test: SEC; SEC of the N39A mutant (Supplementary Figs. 2 and 8), used with DSF to test Mg-AMPPNP binding; both purified
[4] = target: MORC2(1–603) T424R (human) (UniProt Q9Y6X9); test: condition: only during purification, no nucleotide added; SEC; size-exclusion chromatography at purification, Superdex 200 increase (10/300), MORC2 gel filtration buffer, 4 °C, no nucleotide added; both purified

Molecule: wild-type human MORC2(1–603) (from UniProt Q9Y6X9-1 1-603) (domain or fragment)
- binding [1]: no binding (condition: without nucleotide (apo), 40 µM)

B1: MORC2(1–603) Y18A (domain or fragment, UniProt Q9Y6X9-1 1-603)
chain: MAFTNYSSLNRAQLTFEALHTNSTTHEFLFGALAELVDNARDADATRIDIYAERREDLRGGFMLCFLDDGAGMDPSDAASVIQFGKSAKRTPESTQIGQYGNGLKSGSMRIGKDFILFTKKEDTMTCLFLSRTFHEEEGIDEVIVPLPTWNARTREPVTDNVEKFAIETELIYKYSPFRTEEEVMTQFMKIPGDSGTLVIIFNLKLMDNGEPELDIISNPRDIQMAETSPEGTKPERRSFRAYAAVLYIDPRMRIFIHGHKVQTKRLSCCLYKPRMYKYTSSRFKTRAEQEVKKAEHVARIAEEKAREAESKARTLEVRLGGDLTRDSRVMLRQVQNRAITLRREADVKKRIKEAKQRALKEPKELNFVFGVNIEHRDLDGMFIYNCSRLIKMYEKVGPQLEGGMACGGVVGVVDVPYLVLEPTHNKQDFADAKEYRHLLRAMGEHLAQYWKDIAIAQRGIIKFWDEFGYLSANWNQPPSSELRYKRRRAMEIPTTIQCDLCLKWRTLPFQLSSVEKDYPDTWVCSMNPDPEQDRCEASEQKQKVPLGTFRKDMKTQEEKQKQLTEKIRQQQEKLEALQKTTPIRSQADLKKLPLEVTTRPST
- binding [2]: no binding

B2: MORC2(1–603) N39A (domain or fragment, UniProt Q9Y6X9-1 1-603)
chain: B1 chain with A18Y, N39A
- binding [3]: no binding

B3: MORC2(1–603) T424R (domain or fragment, human, UniProt Q9Y6X9-1 1-603, looked up)
chain: B1 chain with A18Y, T424R
notes: also called T424R variant; source: Sf9 insect cells (baculovirus), purified as for wild type; not shown: tandem StrepII, N-terminal, cleaved
- binding [4]: no binding
